Experimental data reported in patent US20070072246A1, “Cell-based assays for determining drug action” (priority 2003, published 2007).

Test system: PBMC and endothelial cell co-culture
Assay: SAg system: PBMC and endothelial cell co-culture stimulated with superantigen
Type: cell-based, human
Conditions: 24 hr SAg stimulation; non-toxic concentrations

O=[N+]([O-])c1ccc(-c2nc(-c3ccncc3)c(-c3ccc(F)cc3)[nH]2)cc1 [PD169316]
activity in the SAg system: retain activity
